Measured data: PubChem BioAssay AID504764 (Drosophila RNAi Screening Center, 2011)
Assay: 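Genes whose knock-down alters Notch-dependent transcription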 (primary screen). System: Drosophila Kc167 cells. Reagents: long dsRNA against Drosophila genes. Time to read-out: about 5 days (4 days dsRNA, then 24 h after transfection). Conditions: transfection of constitutively active membrane-tethered Notch lacking the extracellular domain, read 24 h later. Measurement: 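Firefly luciferase from an E(spl)m3 reporter with active Notch, plus control-promoter and uninduced reporter wells for normalisation; unnormalised counts, duplicate wells a and b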. Direction: induced reporter light, run 1, well a and induced reporter light, run 1, well b: higher = more light from the Notch target reporter with active Notch; control promoter light, run 1, well a and control promoter light, run 1, well b: higher = more light from the viral control promoter (cell number, transfection, viability); uninduced reporter light, run 1, well a: higher = more light from the Notch target reporter without active Notch. Active means: 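Wells with low control signal or poorly matching duplicates excluded; duplicates averaged; per source plate, z beyond ±2 for induced/control log2 ratio or beyond ±1.8 for induced/uninduced marks a hit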. Meaning of the calls: active = modifier hit (raised or lowered Notch signal); inactive = not a hit.
In all, the deposit lists about 22,000 reagents; shown is an unselected part of those with a known target gene and a result. Of all reagents, 403 (1.9%) were called active. 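Unnormalised raw counts per well; ratio z-scores behind the hit calls and whether each hit raises or lowers signal are not deposited.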 Unmarked entries are inactive. Not given: the amount of reagent.

Mgat3 [DRSC01305] — induced reporter light, run 1, well a = 87100; induced reporter light, run 1, well b = 87610; control promoter light, run 1, well a = 90995; control promoter light, run 1, well b = 1.08e5; uninduced reporter light, run 1, well a = 6910
CG14556 [DRSC14899] — induced reporter light, run 1, well a = 1.52e5; induced reporter light, run 1, well b = 1.12e5; control promoter light, run 1, well a = 1.71e5; control promoter light, run 1, well b = 1.48e5; uninduced reporter light, run 1, well a = 10900
D2hgdh [DRSC18577] — induced reporter light, run 1, well a = 1.59e5; induced reporter light, run 1, well b = 1.67e5; control promoter light, run 1, well a = 2.14e5; control promoter light, run 1, well b = 2.28e5; uninduced reporter light, run 1, well a = 11150
Nagk [DRSC15994] — induced reporter light, run 1, well a = 1.35e5; induced reporter light, run 1, well b = 1.55e5; control promoter light, run 1, well a = 1.24e5; control promoter light, run 1, well b = 1.03e5; uninduced reporter light, run 1, well a = 9895
Gmppb [DRSC12169] — induced reporter light, run 1, well a = 1.39e5; induced reporter light, run 1, well b = 1.27e5; control promoter light, run 1, well a = 1.19e5; control promoter light, run 1, well b = 95110; uninduced reporter light, run 1, well a = 10765
CG17672 [DRSC09230] — induced reporter light, run 1, well a = 5580; induced reporter light, run 1, well b = 5120; control promoter light, run 1, well a = 8385; control promoter light, run 1, well b = 8888; uninduced reporter light, run 1, well a = 6570
CG17672 [DRSC10278] — induced reporter light, run 1, well a = 1.42e5; induced reporter light, run 1, well b = 1.26e5; control promoter light, run 1, well a = 1.14e5; control promoter light, run 1, well b = 67270; uninduced reporter light, run 1, well a = 14332

The list goes on; the last 2 above are carried over.
CG17672 [DRSC09230] — induced reporter light, run 1, well a = 5580; induced reporter light, run 1, well b = 5120; control promoter light, run 1, well a = 8385; control promoter light, run 1, well b = 8888; uninduced reporter light, run 1, well a = 6570
CG17672 [DRSC10278] — induced reporter light, run 1, well a = 1.42e5; induced reporter light, run 1, well b = 1.26e5; control promoter light, run 1, well a = 1.14e5; control promoter light, run 1, well b = 67270; uninduced reporter light, run 1, well a = 14332
CG2201 [DRSC03721] — induced reporter light, run 1, well a = 2.30e5; induced reporter light, run 1, well b = 1.69e5; control promoter light, run 1, well a = 1.60e5; control promoter light, run 1, well b = 1.69e5; uninduced reporter light, run 1, well a = 17030
CG31807 [DRSC01550] — induced reporter light, run 1, well a = 58195; induced reporter light, run 1, well b = 64040; control promoter light, run 1, well a = 69645; control promoter light, run 1, well b = 54345; uninduced reporter light, run 1, well a = 5105
Qsox4 [DRSC14224] — induced reporter light, run 1, well a = 79365; induced reporter light, run 1, well b = 76175; control promoter light, run 1, well a = 80265; control promoter light, run 1, well b = 61880; uninduced reporter light, run 1, well a = 7045
Ugt36D1 [DRSC02600] — induced reporter light, run 1, well a = 2.11e5; induced reporter light, run 1, well b = 2.01e5; control promoter light, run 1, well a = 1.68e5; control promoter light, run 1, well b = 2.24e5; uninduced reporter light, run 1, well a = 16042
CG9733 [DRSC16549] — induced reporter light, run 1, well a = 1.32e5; induced reporter light, run 1, well b = 1.32e5; control promoter light, run 1, well a = 2.14e5; control promoter light, run 1, well b = 1.93e5; uninduced reporter light, run 1, well a = 10635
CG13026 [DRSC09906] — induced reporter light, run 1, well a = 2.49e5; induced reporter light, run 1, well b = 1.99e5; control promoter light, run 1, well a = 2.40e5; control promoter light, run 1, well b = 2.21e5; uninduced reporter light, run 1, well a = 8470
Erasp [DRSC07111] — induced reporter light, run 1, well a = 1.34e5; induced reporter light, run 1, well b = 1.60e5; control promoter light, run 1, well a = 2.37e5; control promoter light, run 1, well b = 2.71e5; uninduced reporter light, run 1, well a = 13125
Usp2 [DRSC20590] — induced reporter light, run 1, well a = 2.02e5; induced reporter light, run 1, well b = 1.73e5; control promoter light, run 1, well a = 2.88e5; control promoter light, run 1, well b = 2.80e5; uninduced reporter light, run 1, well a = 15630
Usp2 [DRSC20632] — induced reporter light, run 1, well a = 1.18e5; induced reporter light, run 1, well b = 1.20e5; control promoter light, run 1, well a = 87455; control promoter light, run 1, well b = 49475; uninduced reporter light, run 1, well a = 9685
Usp2 [DRSC20633] — induced reporter light, run 1, well a = 73480 (active); induced reporter light, run 1, well b = 80510; control promoter light, run 1, well a = 52415; control promoter light, run 1, well b = 78815; uninduced reporter light, run 1, well a = 10350
Pkd2 [DRSC02962] — induced reporter light, run 1, well a = 1.92e5; induced reporter light, run 1, well b = 2.17e5; control promoter light, run 1, well a = 2.10e5; control promoter light, run 1, well b = 1.94e5; uninduced reporter light, run 1, well a = 18000
